Assay results taken from patent US6222018.

Assays:
[1] = system: HIF-1 (HIF-1alpha/HIF-1beta (ARNT)) in nuclear extract (Homo sapiens); assay: EMSA; details: CoCl2/hypoxia-induced; supershifted by anti-HIF-1alpha and anti-HIF-1beta sera; protein in an extract; letters built from the parent sequence and the stated change
[2] = system: constitutive DNA binding factor (C1/C2) (Homo sapiens); assay: EMSA; details: sequence-specific; protein in an extract; letters built from the parent sequence and the stated change
[3] = system: HIF-1 (HIF-1alpha/HIF-1beta (ARNT)) in nuclear extract (Homo sapiens); assay: competition with a labelled probe; details: unlabeled M18 does not compete, crude hypoxic Hep3B extract; protein in an extract; letters built from the parent sequence and the stated change; variant of W18 (hEPO 3'-FS nt 1-18)

Sequence | binding result [1] | binding result [2] | binding result [3]
GATCGCCCTACGTGCTGTCTCA / GATCTGAGACAGCACGTAGGGC [W18 (hEPO 3'-FS nt 1-18)] | binds | binds | –
GATCGCCCTAAAAGCTGTCTCA / GATCTGAGACAGCTTTTAGGGC [M18] | – | – | no binding

At least one result comes from cells or an extract, where the contact may be indirect. For part of these data: A negative result means that nothing was seen under these conditions. For part of these data: The exact form of at least one protein or probe is not confirmed.
